107 sequences from PubChem BioAssay AID1508600 (Functional Genomics Laboratory (NCATS/FGL), 2020) can be followed below.

Hit rate of the full screen: of about 53,000 sequences, about 3,700 (7%) were called active.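 How the source made its calls: active means gene knockdowns whose robust z-score for IL-1 alpha signal is at least 2 or at most -2, so actives lie on both sides; inactive means the rest.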 Some of the results follow.

The nature of the test: Components of the Cytosolic LPS Sensing Pathway: Gene Identification via Genome-wide siRNA Screen.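 Further: robust z of the log signal after scaling to non-targeting control siRNA wells of the plate.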 Conditions: RAW264.7 macrophages, IL-1a HTRF, actives lie on both sides, screened at 100 nM (by protocol), cells primed 5 h with Pam3CSK4 first. The essentials: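 IL-1a HTRF of supernatants after 24 hour LipidA transfection of Pam3CSK4-primed (5 hours) RAW264.7 cells, 48h post-siRNA transfection (100 nM). Scores: percent of plate negative-control median, then log-based robust z-score.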
A general note: Time-resolved FRET reads energy transfer from a long-lived donor to a nearby acceptor.
In the case of GGUUUCGAUAGGAAUAUGATT against Pkp1, the z-score is inactive: -0.791.
On to GGGUUUUAAGUUUACUGCUTT against Nupr1l, for which the z-score is inactive: 1.27.
Regarding CGGCCAUAUAAUUUUGAAUTT against Tbx20, the z-score is inactive: 0.233.
In the case of CCUCUCCAUCUUUGACUUATT against Olfr961 it was inactive: -0.655; in that of GGCUUCCAUUACCAUGAUGTT against Olfr381, inactive: -0.318; in that of CCAGUUCCUUUGUAGGCAATT against Ctf1, inactive: 0.171.
As for CCUAUGAAUGAUUUUGGUGTT against Pcdhb7, the figure is inactive: -0.0606.
In the case of GCAAGACUAAGACUAUCUCTT against Olfr1340 it was inactive: 0.221.
With GGCACUCAGUUCUUACCAGTT against Paxx, the z-score was inactive: -1.09.
For GCCUAGUGAAUACAUCACUTT against Cyp4f18, the z-score is inactive: 0.394.
Consider GGGACUUAAUUUAUAGGGATT against Tagln2, for which the z-score was inactive: 0.84.
In the case of GGAGUCCAAAUUCUUGGGUTT against Ik it was inactive: 0.961.
As for UAUGGGCCCUUGUCCUCUGTT against Ffar1, the figure is inactive: -1.28; as for GGAAGAUACCAAAAUCUUATT against Got1l1, inactive: 1.27.
In the case of GGGUUCUCUUGCCUACACATT against Ltv1, the z-score is inactive: 0.294.
As for CCUUAAUUUCGACAUGACUTT against Zfand5, the z-score was inactive: -0.32.
In the case of GGUUCAUUGUCUGAGAUCATT against Thumpd3 it was inactive: 0.998; in that of GGAGACAUUGCUAUAUAUGTT against Hmgcs1, inactive: -0.207.
Take CGUAAUUGUUCCAUGUAGUTT against Fam72a: the z-score was inactive: 0.917.
Regarding GGUGCUAGAUGAGCUGACCTT against Krt16, the z-score was inactive: -0.123.
In the case of GGAUUGUAAUAAUGGAGCCTT against H2-M10.4, the z-score was active: 2.94.
As for GUCCGUCUCGGAGAAAUGUTT against Ccdc106, the figure is active: -2.28.
As for GGGACAGAACUUAAAUGUATT against Mup4, the figure is inactive: -0.24; as for GCAUCUAUCGGAUUCUUAUTT against Ddx49, inactive: -0.856; as for GAAAAAGGGUGACAAGACUTT against Nppc, inactive: 0.276.
On to CCGUCAUGACUUUGUUCUATT against Plcg1, for which the z-score is inactive: -0.205.
In the case of GGCAAGAAGUGUGAUGAACTT against Kansl3 it was active: -2.81; in that of CGGUUAAAAGCCCUCAGCATT against Olfr592, inactive: -1.41; in that of CCUCGUGUUACUUUUACCCTT against Olfr13, inactive: -1.51.
As to GGAUAUCCACAGAAAUCAATT against Dram1, the z-score was inactive: -0.496.
As for GGAUUGCCCUGUUGUGGUGTT against Snx17, the z-score was inactive: -0.227.
As to GGAUGUAGAUGUUGGUUUUTT against Kcnj14, the z-score is active: 2.52.
In the case of GGGAACAGAAAUUAAAGGATT against Fanca, the z-score is inactive: 0.0745.
As to CCAGUUCACCAUAUGCUGCTT against Tdpoz3, the z-score was inactive: 1.08.
As for GUCCUGAAGAAGCUCAAGATT against Cartpt, the figure is inactive: -0.513; as for CGGAGGAGAAAUCUUGUAATT against Zfp273, inactive: -1.42.
As for GCAUGUCCAAAGUGGUACCTT against Tecrl, the figure is inactive: 0.81.
As to GCUUAGUCUUAUGUAGCUCTT against Vmac, the z-score is inactive: -0.00402.
In the case of GCUUGGAAGACUGUAAACUTT against Lpcat2b it was inactive: 1.02.
As for GGUCCUCAAAUGAAAAAGATT against Vps37d, the figure is inactive: -0.347; as for CAUUGGAAAGAAUGGCCUUTT against Olfr890, inactive: -0.231.
In the case of CCCUAAGUUACCUCUUUCGTT against Ndufs8 it was inactive: 0.017; in that of GGCUGAGAUCUGAAAUUGATT against Krt5, inactive: 0.592.
On to CGAUACUGUGCAAAGAAUCTT against Nepro, for which the z-score is inactive: 0.231.
As for GGAACUCAGGGAAUAUAUUTT against Mtnr1a, the figure is inactive: -0.356; as for CCCAAUUAAUGAUCACCCATT against Tlcd2, active: -3.04.
As for GGCUAAUGUAGUAAACCACTT against Olfr965, the figure is inactive: 0.1; as for GGAGAGCUGGUGUUUUAGATT against Tnfrsf17, active: 2.74.
As for CCCUCAAAGACCUGUACAUTT against Gm266, the figure is active: 2.78; as for GGAAUGUGCCUAAGUUUGGTT against Ufc1, inactive: 1.08; as for GGCAAUAAAUAUCCAGAAATT against Crygn, inactive: 1.02.
Regarding GGUAUGAUGUUUGUUUUGCTT against Tshz3, the z-score was inactive: 0.277.
On to “CCGUUUUGAGAUCUGUUAATT against 4930465K10Rik”, for which the z-score is inactive: -1.82.
Consider GGUCUGCUCAAUGCUAUCATT against Olfr918, for which the z-score was inactive: -1.47.
In the case of GGUGAAGCUUCGAAUGACUTT against Slc25a10 it was inactive: -0.1; in that of CGAAGUUGUUGAGAACUCATT against Pcdhb18, inactive: 0.325; in that of GCAUAAGGUGGUUAAUGACTT against Rps15a, inactive: 0.582.
In the case of GGCCAGCAUCCAUGUUUUATT against Cacng1 it was inactive: 1.41.
GGACCAGUUCCUUAAGUUUTT against Dpy19l1: the z-score was inactive: 0.872.
In the case of GGCGAAGGUGUAGAAUCUCTT against Samd12 it was active: 2.48; in that of GCAUAGGCUAGGUUAUUAUTT against Lep, inactive: 0.839; in that of GGCUUCUAAGCACAAAGUATT against Ppp2r5a, inactive: 1.14.
On to GCCUUGUGGUAUUUGAUCGTT against Fbxw9, for which the z-score was inactive: 0.954.
For the sequence CGGGUAUGUGACUGUCAGUTT against Snf8, the z-score was inactive: -0.907.
As for GGAAAGCACCCAAGAAAUGTT against Gspt1, the z-score is inactive: -0.915.
In the case of GGUUUUCACCAUGCAUCAGTT against Mterf4 it was inactive: -0.66; in that of GCAGUCGAAGCACUAAAAATT against Dnaaf2, inactive: 0.412.
As for GGCUUUAUUUAUCAGGAUCTT against Lsamp, the z-score was inactive: 1.17.
As for GGCUAAAGAUCGCAUUCAGTT against Zdhhc6, the figure is inactive: 0.596.
In the case of GGAACUGUUUCUCUUUCCUTT against Rad9a it was inactive: -1.45.
As to CGCAUUCAAUUCCUUUCAATT against Aass, the z-score was inactive: -0.232.
In the case of GGACAUUUUUGACAUUGAATT against Masp1 it was inactive: -0.527; in that of GGAAUGACAAGCAACCAGCTT against Foxp1, inactive: 0.539; in that of GGUCAGCAAAAGAGAUUCUTT against Zmym5, inactive: -0.0742.
In the case of GGUCCUGAGUGUCAAGUUUTT against Lrrc8c, the z-score is inactive: -0.346.
Regarding GGUUGUGUUAUUCAGAUCUTT against Olfr1316, the z-score was inactive: 0.152.
Turning to CCAUUCUGUGAUUACUGAGTT against Olfr787, the z-score was inactive: -0.0288.
In the case of GGAUGAACAUUAAACUUCGTT against Ctsb it was inactive: 0.101; in that of GGGAAAAGUGGGAGAUUUUTT against Rpn1, inactive: 0.389.
Consider GGCUCUCAAUGCCUACUUUTT against Pou6f1, for which the z-score was inactive: 1.86.
In the case of GGAUAUGAGCGGUAUUUUGTT against Trim34a, the z-score is inactive: -0.179.
Consider GCCUAGGUAGCUGUGUUAUTT against Gucy2f, for which the z-score is inactive: -0.00747.
In the case of GCAAGUGCGACUGUAUCUGTT against Gdpd2 it was active: -2.2; in that of CCAAUGUCUACUCAGAUCUTT against Rab11fip4, inactive: 0.815.
Take GGACUUUGUGGACAAAAUUTT against Ift20: the z-score was inactive: -1.64.
With GCUUGACACAAGAGAUUGATT against Krt79, the z-score is inactive: -0.156.
As for GGGAUGGACUUUUGACUGATT against Vmn1r219, the figure is inactive: -0.0459; as for GCUUUCCGGAAUACGAGCUTT against Snapc3, inactive: -0.638; as for GGACAAAGUGACUUCUUGUTT against Gng7, inactive: -0.19.
In the case of CCUCAAGAUAGGUUUCUACTT against Mmp23 it was inactive: 0.613; in that of CCAAGUGGAUCGAAGCCCATT against Endou, inactive: -1.42; in that of CGCGGACAUCUAUGACAAATT against Phpt1, inactive: 1.72.
As to GGUUGAGGUUGGUAAAAAUTT against Havcr2, the z-score is inactive: 0.153.
In the case of GCGGAAGUUAGAGUCGCUGTT against Bend3 it was inactive: 0.325.
As for GGAGAAGAAGAUUUUUGGCTT against Gpr108, the figure is inactive: -0.684; as for GGAAUGCAGAAGAUUGUUATT against Olfr745, inactive: 0.825.
On to CGGUGCUCUUACAUAGCAGTT against Appbp2, for which the z-score was inactive: -0.292.
As for GCAAAAUUUACUGUUAGACTT against Ccdc150, the figure is inactive: -0.123.
In the case of GGAUUCGAGUGGUAACAAGTT against Nmral1 it was inactive: 0.617; in that of CCACCCUCUCAUUACAGACTT against Atp13a4, inactive: -0.487; in that of GGAGAAUGCUUUCAUUGUATT against Gm9734, inactive: 0.159.
With GCAGAAUGGCCUCUUCUACTT against C1qtnf2, the z-score is inactive: 0.197.
As for GGUAAAGUGAACUGUACCUTT against Vstm5, the figure is inactive: 0.843; as for GGUGUGAUAAUGAAACCAATT against Slc2a13, inactive: -0.62.
In the case of GGAGAAUUAGAAUAUGCUATT against Pithd1 it was inactive: 0.0709; in that of GGUGGUGGAAUGCUAAAAATT against Gys1, active: 2.29; in that of GGCCUUCAUUGAGAUGAACTT against Ptbp1, inactive: -1.17.
